Assay results: PubChem BioAssay AID504467 (National Center for Advancing Translational Sciences (NCATS), 2011)
About 7,700 (2.3%) of roughly 330,000 compounds were called active. Inconclusive results, whose numbers are uncertain, are shown with a selection of clear calls. The call rests on the fitted dose curve; in most records, active means well fitted inhibition curve with a large enough effect; inconclusive means small, poorly fitted or top-dose-only effect, or effect the other way; inactive means flat fitted curve, though single readings scatter. Where the call is inconclusive, the potency comes from a doubtful curve fit.

Assay: qHTS screen for small molecules that inhibit ELG1-dependent DNA repair in human embryonic kidney (HEK293T) cells expressing luciferase-tagged ELG1; further: nearly all actives have a fitted effect of over 55% in size
Details: HEK293T ELG1-luciferase reporter, luminescence, 16 h, DNA damage induced by 5-fluorouridine; activity change, negative = inhibition: at 46.1 µM (top of the series)
Summary of the method: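 5-Fluorouridine DNA damage + compound/DMSO, 2,000 cells/well, 16 h, 37 °C/5% CO2. ONE-Glo, 30 min RT, luminescence. Readout = decrease in reporter signal.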
On the % scale 0 is the no-effect control and ±100 the full control effect; potency means the concentration at half of the fitted maximal effect.

Row | SMILES | Potency | activity change, negative = inhibition
1 | CCOC(=O)C1(C)NC(c2ccco2)C2C(=O)N(C)C(=O)C21 (centres undefined) | inconclusive: 20.6 µM [activator, partial curve, poor fit] | 
2 | C=C1C2(C(=O)Nc3nccs3)CCC(C2)C1(C)C (centres undefined) | inconclusive: 29.1 µM [inhibitor, single point] | 
3 | Cc1ccc(NNC(=O)c2ccno2)cc1C | inconclusive: 4.11 µM [inhibitor, full curve] | 
4 | COc1cccc(OCc2cc(C(=O)N(C)Cc3nc4ccccc4[nH]3)no2)c1 | inconclusive: 7.3 µM [activator, partial curve] | 
5 | COc1ccc2nccc(/C=C/c3ccnc4ccc(OC)cc34)c2c1 |  | inactive: -13.9%
6 | O=[N+]([O-])c1ccc2nc(-c3ccc(Cl)cc3)n(OCc3ccccc3)c2c1 | inconclusive: 4.61 µM [activator, partial curve] | 
7 | CCOC(=O)Cc1nn(Cc2nc(-c3ccc(C#N)cc3)cs2)c(=O)c2ccccc12 | active: 10.3 µM | 
8 | COc1cccc(CNC(=O)c2ccccc2NC(=O)C2=C(C)OCCS2)c1 | inconclusive: 29.1 µM [inhibitor, partial curve, poor fit] | 
9 | COc1ccc(CN(C)CC(=O)Nc2ccccc2C(F)(F)F)cc1 | inconclusive: 23.1 µM [inhibitor, partial curve, poor fit] | 
10 | COc1cccc(-n2c(N)c(C(=O)Nc3c(C)n(C)n(-c4ccccc4)c3=O)c3nc4ccccc4nc32)c1 |  | inactive: 0%
11 | O=C(O)CCCNS(=O)(=O)c1ccc(Br)s1 |  | inactive: -9.46%
12 | COCc1ccc(CN2CCCC(CO)(Cc3cccc(Cl)c3)C2)o1 (centres undefined) | inconclusive: 23.1 µM [inhibitor, single point] | 
13 | COC(=O)c1c(-c2cccnc2)csc1NC(=O)c1ccc2c(c1)OCO2 | inconclusive: 3.66 µM [activator, full curve] | 
14 | CCOC(=O)C1(Cc2ccccc2Cl)CCN(C(=O)c2cnccn2)CC1 | inconclusive: 23.1 µM [activator, single point] | 
15 | CCN(CC)c1ccc(/C=N/NC(=O)c2ccc3c(c2)OCCO3)cc1 | inconclusive: 29.1 µM [inhibitor, partial curve, poor fit] | 
16 | Cc1ccc(OCC(=O)NNC(=O)C2CCN(c3ncnc4sc(C)c(C)c34)CC2)cc1 | inconclusive: 11.6 µM [inhibitor, partial curve, poor fit] | 
17 | COc1ccc(-c2csc(NC3=NCCCCC3)n2)cc1 | inconclusive: 9.2 µM [activator, partial curve] | 
18 | CN1CCC(NC(=O)NC2CCCCC2)CC1 |  | inactive: 8.75%
19 | FC(F)(F)c1cccc(N2CCN(C3CC4CCC3C4)CC2)c1 (centres undefined) |  | inactive: -6.2%
20 | O=C(COC(=O)Cc1ccc(S(=O)(=O)N2CCOCC2)s1)Nc1ccc(F)cc1F |  | inactive: -1.63%
21 | Clc1nc(-c2cccnc2)nc2scc(-c3ccccc3)c12 | inconclusive: 18.4 µM [activator, partial curve] | 
22 | CCOC(=O)c1cccc(NC(=O)c2ccc3c(c2)OCO3)c1 | inconclusive: 2.91 µM [activator, partial curve] | 

2 of the compounds above, as comma-separated lines:
Row,SMILES,Potency,"activity change, negative = inhibition"
14,CCOC(=O)C1(Cc2ccccc2Cl)CCN(C(=O)c2cnccn2)CC1,"inconclusive: 23.1 µM [activator, single point]",
15,CCN(CC)c1ccc(/C=N/NC(=O)c2ccc3c(c2)OCCO3)cc1,"inconclusive: 29.1 µM [inhibitor, partial curve, poor fit]",

Next part.

Row | SMILES | Potency | activity change, negative = inhibition
23 | O=C(NC(N1CCCC1)C(Cl)(Cl)Cl)c1ccccc1 (centres undefined) | inconclusive: 6.31 µM [inhibitor, partial curve, poor fit] | 
24 | CCN1CCN(C(=S)NCCc2ccccc2)CC1 | inconclusive: 4.47 µM [activator, full curve, poor fit] | 
25 | CCN(CC)S(=O)(=O)c1cc(NC(=O)C(C)N2CCN(c3ccccn3)CC2)ccc1C (centres undefined) | active: 20.6 µM | 
26 | CC(C)C(=O)Nc1ccc(NC(=O)c2cccc(F)c2)cn1 | inconclusive: 18.4 µM [activator, partial curve] | 
27 | COc1ccc(C(=O)Nc2cccc(-c3cc4ccccc4oc3=O)c2)cc1[N+](=O)[O-] |  | inactive: -3.69%
28 | O=C(NCC1CCCO1)c1cnn2c(C(F)F)cc(C3CC3)nc12 (centres undefined) |  | inactive: 6.47%
29 | Cc1c(-c2ccccc2)n[nH]c1C(=O)NN | inconclusive: 29.1 µM [activator, single point] | 
30 | CC(=O)c1c(C)[nH]c(C(=O)Nc2cccc(C(F)(F)F)c2)c1C | inconclusive: 0.291 µM [activator, full curve] | 
31 | COc1ccc(/C=C(/NC(=O)c2ccccc2)C(=O)NCC2CCCO2)cc1 (centres undefined) | inconclusive: 0.092 µM [activator, full curve, poor fit] | 
32 | CC(=O)N1CCN(c2ncnc3sc(-c4ccccc4)cc23)CC1 |  | inactive: -4.03%
33 | S=C(Nc1ccccc1)N1CCCCCC1 | inconclusive: 10.3 µM [activator, partial curve, poor fit] | 
34 | O=C(NCc1ccccc1)N[C@@H](Cc1c[nH]c2ccccc12)C(=O)O | inconclusive: 0.58 µM [inhibitor, single point] | 
35 | CCCc1nc2ccc(NC(=O)NCCC(=O)OCC)cc2c(=O)n1Cc1cccc(Cl)c1 | inconclusive: 20.6 µM [inhibitor, single point] | 
36 | O=S(=O)(c1ccc2nc(SCc3cccc(Cl)c3)[nH]c2c1)N1CCOCC1 | inconclusive: 29.1 µM [inhibitor, partial curve, poor fit] | 
37 | CCN(Cc1ccccc1)S(=O)(=O)c1cn(C)cn1 | inconclusive: 32.6 µM [activator, partial curve, poor fit] | 
38 | COc1ccc2c(c1)C(c1ccc([N+](=O)[O-])cc1)=NNC(c1ccco1)=N2 | inconclusive: 20.6 µM [inhibitor, partial curve] | 
39 | CCOc1ccc(/C=N/NC(=O)c2cc3c(OC)cc(OC)cc3[nH]2)cc1OC | active: 23.1 µM | 
40 | Cc1ccc(S(=O)(=O)N2CCN(C3CC(=O)N(c4ccc(F)cc4)C3=O)CC2)cc1C (centres undefined) |  | inactive: -18.3%
41 | CCc1cc(C(=O)N=Nc2c(O)[nH]c3ccc([N+](=O)[O-])cc23)c2ccccc2n1 |  | inactive: -19.8%
42 | COc1cc(CC(=O)OCC(=O)Nc2cc([N+](=O)[O-])ccc2F)cc(OC)c1OC | inconclusive: 8.2 µM [inhibitor, partial curve, poor fit] | 
43 | COc1ccc(NC(=O)C2CCC(CNC(=O)[C@@H]3Cc4ccccc4CN3)CC2)cc1 (some centres undefined) |  | inactive: 13.7%
44 | CCN(CC)c1ccc(C(=O)N/N=C(\C)c2cccnc2)cc1 |  | inactive: 13.6%
